One substance from article PMC7329908 can be followed below.

In the assay the target is C. elegans Hsp90 (HSP-90) (C. elegans) (UniProt Q18688). Briefly: AUC; sedimentation velocity with fluorescence detection; 600 nM ATTO 488-labelled GRLBDm, 3 μM unlabelled chaperones and cofactors, no nucleotide; 20 mM HEPES, 20 mM KCl, 5 mM MgCl2, 50 μM dexamethasone, pH 7.5; 42,000 rpm, 20 °C; both purified.

Results are given in words; binding and its absence hold for the method and conditions named. Binding can be weak; no strength is given.

Turning to “AHSA-1, nematode ATPase activator of HSP-90 (from UniProt Q93168)”, the binding result was “binds”.
